The source of these data is publication PMC4877375.

These are yes or no findings as the source states them, for the method shown. Binding seen in cells or lysates may run through a third protein. Here binding means that the protein was enriched with, or labelled near, the bait; the list need not be complete.

The chains are these.
T1: Trs120p-TAP (yeast (endogenous in the yeast strain)) (UniProt Q04183)
T1 sequence: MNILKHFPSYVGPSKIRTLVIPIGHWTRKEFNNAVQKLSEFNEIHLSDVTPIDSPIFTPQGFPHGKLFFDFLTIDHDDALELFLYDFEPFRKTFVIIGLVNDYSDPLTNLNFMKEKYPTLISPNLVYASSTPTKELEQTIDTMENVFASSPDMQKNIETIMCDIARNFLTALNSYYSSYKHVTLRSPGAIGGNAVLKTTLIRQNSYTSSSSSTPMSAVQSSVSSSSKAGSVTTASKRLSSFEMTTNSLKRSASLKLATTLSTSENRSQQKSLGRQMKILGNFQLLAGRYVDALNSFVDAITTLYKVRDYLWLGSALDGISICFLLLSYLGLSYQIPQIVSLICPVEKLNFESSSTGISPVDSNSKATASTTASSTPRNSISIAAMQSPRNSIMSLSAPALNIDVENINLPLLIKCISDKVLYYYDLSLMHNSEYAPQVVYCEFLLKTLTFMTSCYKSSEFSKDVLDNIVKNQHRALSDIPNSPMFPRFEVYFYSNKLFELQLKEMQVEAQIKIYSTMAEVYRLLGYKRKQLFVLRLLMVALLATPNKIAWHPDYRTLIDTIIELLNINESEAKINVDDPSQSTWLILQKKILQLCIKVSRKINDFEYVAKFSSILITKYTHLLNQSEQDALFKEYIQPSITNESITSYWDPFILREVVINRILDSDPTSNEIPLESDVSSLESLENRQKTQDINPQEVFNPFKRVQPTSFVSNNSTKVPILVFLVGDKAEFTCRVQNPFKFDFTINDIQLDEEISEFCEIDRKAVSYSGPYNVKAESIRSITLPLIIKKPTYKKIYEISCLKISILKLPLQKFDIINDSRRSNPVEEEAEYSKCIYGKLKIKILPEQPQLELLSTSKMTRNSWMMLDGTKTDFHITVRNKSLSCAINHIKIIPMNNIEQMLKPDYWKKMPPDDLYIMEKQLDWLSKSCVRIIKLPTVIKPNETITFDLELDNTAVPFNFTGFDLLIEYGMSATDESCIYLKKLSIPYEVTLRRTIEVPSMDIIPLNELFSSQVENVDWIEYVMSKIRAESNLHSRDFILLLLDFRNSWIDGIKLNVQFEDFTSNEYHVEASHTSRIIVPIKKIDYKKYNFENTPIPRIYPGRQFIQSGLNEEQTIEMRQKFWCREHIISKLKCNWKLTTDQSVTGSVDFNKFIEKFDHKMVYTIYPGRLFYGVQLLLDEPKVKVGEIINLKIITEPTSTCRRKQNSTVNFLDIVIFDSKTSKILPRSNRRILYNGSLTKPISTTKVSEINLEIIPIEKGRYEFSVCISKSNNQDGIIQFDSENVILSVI

B1: SEC26 (protein, UniProt P41810 1-973)
chain: MTSLSSQPAYTLVFDPSPSMETYSSTDFQKALEKGSDEQKIDTMKSILVTMLEGNPMPELLMHIIRFVMPSKNKELKKLLYFYWEIVPKLAEDGKLRHEMILVCNAIQHDLQHPNEYIRGNTLRFLTKLREAELLEQMVPSVLACLEYRHAYVRKYAILAVFSIFKVSEHLLPDAKEIINSFIVAETDPICKRNAFIGLAELDRENALHYLENNIADIENLDPLLQAVFVQFIRQDANRTPALKAQYIELLMELLSTTTSDEVIFETALALTVLSANPNVLVPAVNKLIDLAVKVSDNNIKLIVLDRIQDINANNVGALEELTLDILRVLNAEDLDVRSKALDISMDLATSRNAEDVVQLLKKELQTTVNNPDQDKAMQYRQLLIKTIRTVAVNFVEMAASVVSLLLDFIGDLNSVAASGIIAFIKEVIEKYPQLRANILENMVQTLDKVRSAKAYRGALWIMGEYAEGESEIQHCWKHIRNSVGEVPILQSEIKKLTQNQEHTEENEVDATAKPTGPVILPDGTYATESAFDVKTSQKSVTDEERDSRPPIRRFVLSGDFYTAAILANTIIKLVLKFENVSKNKTVINALKAEALLILVSIVRVGQSSLVEKKIDEDSLERVMTSISILLDEVNPEEKKEEVKLLEVAFLDTTKSSFKRQIEIAKKNKHKRALKDSCKNIEPIDTPISFRQFAGVDSTNVQKDSIEEDLQLAMKGDAIHATSSSSISKLKKIVPLCGFSDPVYAEACITNNQFDVVLDVLLVNQTKETLKNLHVQFATLGDLKIIDTPQKTNVIPHGFHKFTVTVKVSSADTGVIFGNIIYDGAHGEDARYVILNDVHVDIMDYIKPATADDEHFRTMWNAFEWENKISVKSQLPTLHAYLRELVKGTNMGILTPSESLGEDDCRFLSCNLYAKSSFGEDALANLCIEKDSKTNDVIGYVRIRSKGQGLALSLGDRVALIAKKTNKLALTHV
B2: LDB19 (protein, UniProt Q12502 1-818)
chain: MAFSRLTSTHQSNHNGYSNSNKKGQSLPLTLSIDVESPPCVLYGSAMESSGAVLSGLFTVTVVDPYSSAEDKSLKNTESNVSTTSKSLKRKSTFGSALSSRLSSLSASTSNISPSTSSTSISHSPTPANLRIMAGYTKITITSVTLSLVQKIHFHKPFVPNISSMQTCMNCKTKITNMKSWEIQSNTQDLSVGSHSYPFSYLIPGSVPCSSSLGATAETQVKYELIAVVTYIDPHRNSFSSGHSTPRKEGSSSKKRLLQLAMPIAVTRSIPRGPDKNSLRVFPPTELTAAAVLPNVVYPKSTFPLEMKLDGVSSGDRRWRMRKLSWRIEETTRVKAHACPVHKHELRQLEEQVKIKESEKSKKPRSHIKRYGELGPQIRVAVNSLENMPSQRLPGEPGREQAPNSSGPASTGNVGLDDENPVNEDEEDQPGSEFIHPSDDALRQELLMQQQRARQQQLQQELKNNSSLFTEEVRIISKGEMKSGWKTDFDNNGKIELVTEIDCMGLNSGVSNPVMHASTLQTPSTGNKKPSINVACDIQDPNLGLYVSHILAVEIVVAEETLQYANGQPIRKPNSKNKKETNNNTMNVHNPDQRLAELSPIFANRNTPKVRRMGPEDITPVNSNKSNHSTNKEKASNGASNSNIVSVPTGAARVLRMQFRLTVTERSGLGISWDEEVPPIYQDVELLSPPCYELSINNGIKNKLYSTMSTPVRSEDDFVGGSDEDIGNYESQGLEPGPNVQEVTITQNKLTIPPTAHHYQPASSSQRSLTTVQSPPLESVVSVQGSVPFRGHVLTPHSTRDIRIQNFSDFLDSNRITQ
B3: VPS17 (protein, UniProt P32913 1-551)
chain: MTSAVPYDPYDDLDNNPFAEPQEEDSEPAATTTDGSSSMSEERVGTEQTAASVQDNGTANNIQNGLGEEGNATRSKTSNEHNENQQPSQPSERVILPERSDEKKKYTLLAKVTGLERFGSATGKKENPTIIFDCSTNLPTFRKQQYKNVKKSYEEFHQLFKYLNVAIQESFVPTLPSAYTTFGINSEEDRMKVTRNFQLWFNRLSQDPLIIRNEEVAFFIESDFNTYTPINKSKSLASGLKRKTLKQLAPPYDEITELAEFRPLVKSIYVVSQSLQEKLLRVSRNRKMMVQEENAFGQDFVNLDEHNKLYRRYGKILTAVGDIDSIIATMDMATLYDGLEWIVRDAYAVKEALTNRHFIMRNLVQAQQNSKAKQEQARRFRSRRDINPMKIDEALRQLKAAAKNEQVLTLKLQRITSNMIIERKQWISWYEEWIRSSIKEFTLRKIEYERKKLTLLERVRSDIRKADENGGLSRLGRHAVSNNNSDTSQTLKGDSWTGESNRKSQIPINKIAHTEFDDELFTEDDGYNSQDSDTTSLNARHAASLLGMSTK
B4: VPS1 (protein, UniProt P21576 1-704)
chain: MDEHLISTINKLQDALAPLGGGSQSPIDLPQITVVGSQSSGKSSVLENIVGRDFLPRGTGIVTRRPLVLQLINRRPKKSEHAKVNQTANELIDLNINDDDKKKDESGKHQNEGQSEDNKEEWGEFLHLPGKKFYNFDEIRKEIVKETDKVTGANSGISSVPINLRIYSPHVLTLTLVDLPGLTKVPVGDQPPDIERQIKDMLLKYISKPNAIILSVNAANTDLANSDGLKLAREVDPEGTRTIGVLTKVDLMDQGTDVIDILAGRVIPLRYGYIPVINRGQKDIEHKKTIREALENERKFFENHPSYSSKAHYCGTPYLAKKLNSILLHHIRQTLPEIKAKIEATLKKYQNELINLGPETMDSASSVVLSMITDFSNEYAGILDGEAKELSSQELSGGARISYVFHETFKNGVDSLDPFDQIKDSDIRTIMYNSSGSAPSLFVGTEAFEVLVKQQIRRFEEPSLRLVTLVFDELVRMLKQIISQPKYSRYPALREAISNQFIQFLKDATIPTNEFVVDIIKAEQTYINTAHPDLLKGSQAMVMVEEKLHPRQVAVDPKTGKPLPTQPSSSKAPVMEEKSGFFGGFFSTKNKKKLAALESPPPVLKATGQMTERETMETEVIKLLISSYFSIVKRTIADIIPKALMLKLIVKSKTDIQKVLLEKLYGKQDIEELTKENDITIQRRKECKKMVEILRNASQIVSSV
B5: SEC27 (protein, UniProt P41811 1-889)
chain: MKLDIKKTFSNRSDRVKGIDFHPTEPWVLTTLYSGRVELWNYETQVEVRSIQVTETPVRAGKFIARKNWIIVGSDDFRIRVFNYNTGEKVVDFEAHPDYIRSIAVHPTKPYVLSGSDDLTVKLWNWENNWALEQTFEGHEHFVMCVAFNPKDPSTFASGCLDRTVKVWSLGQSTPNFTLTTGQERGVNYVDYYPLPDKPYMITASDDLTIKIWDYQTKSCVATLEGHMSNVSFAVFHPTLPIIISGSEDGTLKIWNSSTYKVEKTLNVGLERSWCIATHPTGRKNYIASGFDNGFTVLSLGNDEPTLSLDPVGKLVWSGGKNAAASDIFTAVIRGNEEVEQDEPLSLQTKELGSVDVFPQSLAHSPNGRFVTVVGDGEYVIYTALAWRNKAFGKCQDFVWGPDSNSYALIDETGQIKYYKNFKEVTSWSVPMHSAIDRLFSGALLGVKSDGFVYFFDWDNGTLVRRIDVNAKDVIWSDNGELVMIVNTNSNGDEASGYTLLFNKDAYLEAANNGNIDDSEGVDEAFDVLYELSESITSGKWVGDVFIFTTATNRLNYFVGGKTYNLAHYTKEMYLLGYLARDNKVYLADREVHVYGYEISLEVLEFQTLTLRGEIEEAIENVLPNVEGKDSLTKIARFLEGQEYYEEALNISPDQDQKFELALKVGQLTLARDLLTDESAEMKWRALGDASLQRFNFKLAVEAFTNAHDLESLFLLHSSFNNKEGLVTLAKDAERAGKFNLAFNAYWIAGDIQGAKDLLIKSQRFSEAAFLGSTYGLGDDAVNDIVTKWKENLILNGKNTVSERVCGAEGLPGSSSSGDAQPLIDLDSTPAPEQADENKEAEVEDSEFKESNSEAVEAEKKEEEAPQQQQSEQQPEQGEAVPEPVEEES
B6: SEC21 (protein, UniProt P32074 1-935)
chain: MSAHTYKKFENSTSGDLPDKMTIYQDCMNTFNESPVNSKRCRLLISRLLRLLAQGETFPQNEATALFFSISKLFQHQNDPLRQAVYLAIKELSGISEDVLMATSSIMKDVQNGSDLIKPDAIRSLTYVLDESTAFSAERLLKSAVVSRHPSISSAALCTSYHLLPISEVTIRRFTNETQEAVLDLKQFPNQHGNSEYYPNSTYISQYHALGLLYQLKKTDKMALLKLVRHFSENNSMKNQLAKVELVKIVNDLIYRDPQLFSQFRPLLSDWLSNKFESVQLETAKLITSFATRNSRLVAPELYAAAISALQSLLTVPRVSSRFAALRILNRISMVSPEKIVVCNPELESLINDSNRNISTYAITTLLKTGTSKNISSLISTITNFIHDVSDDFKIIIIDAVRTLSLNFPQEWKSILNFLIDVLKNSEGGFKFKNSIVEALIDIVSFVPQSKELALENLCDFIEDCEFNEILVRILHLLGKEGPSAPNPSLYVRHIYNRVVLENSIIRSAAVVALSKFALTKNDPTLYESIISLLKRIANDKDDEVRDRATIALEFIDSARNKDDVIAQNLIESKYFYDIPSLESKLSSYISSNTDSFATAFDVNQVRKFTEDEMKAINLKRKQEQIFNQKSETTLDTTPEAESVPEKRADANSFAGPNLDDHQEDLLATKYADELLSIEQIKPFGQLVNSSRAISLTEPEAEFVVRGVKHLFKDNVVLQFNITNTLTDIALDNVSVVCTPEISDEAELEELFTLQVDRLLPSEEAACYVAFKKLDEIVMEGFLNNLTFTTKEINPDTNEPFDGDEGFQDEYEIDSIFLNAGDYVKSSFTGNFSATFDELPCEEVAVFNIQEDLSIQEVVDKIILNSSCLPVESTQFAPSDSNSHTLKLFGKSALTGSKVALQIKMIKSSKGLALKVHGKGEDSLLCSDLVNGLMQ

This assay deals with T1, Trs120p-TAP (yeast (endogenous in the yeast strain)). Put plainly: affinity purification with mass spectrometry; Trs120p-TAP purified from yeast lysate (1% CHAPS, 100 mM NaCl) on IgG beads, TEV elution, calmodulin beads, EGTA elution; gel bands or total eluate analysed by MS/MS.
For B1, the binding result is “binds”.
Next, B2: “binds”; B3: “binds”.
Next, B4: “binds”; B5: “binds”.
Next, B6: “binds”.
